Experimental findings from PubChem BioAssay AID272 (DTP/NCI, 2004) are described below.

This assay relates to Lewis lung carcinoma i.m., BDF1 mice, T/C %. The assay is described as follows: NCI In Vivo Anticancer Drug Screen. Data for tumor model Lewis Lung Carcinoma (intramuscular) in B6D2F1 (BDF1) mice. The method, boiled down:
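Antitumour activity is assessed in transplanted-tumour mice. Endpoint is survival or tumour size, normalised to vehicle-dosed controls (T/C).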

The list does not hold the whole screen: it is rich in T/C values a quarter to a half above the control, in often repeated tests (any T/C) and in doses without a T/C. Other doses and runs of a compound stand elsewhere. T/C is the treated group as % of the vehicle group. Some entries give survivors of the animals treated and no T/C: the source holds a T/C of zero for them, seemingly a mark for toxic or unscored doses. Some survivor counts are full or nearly so, which does not show that the dose was tolerated: the source hardly ever lists a survival T/C far under the control, and the zero likely stands for such cases as well. Survivors were counted at the toxicity check, usually on the fifth day, unless a day is given; later deaths do not show. Schedules are NCI's codes, taken here to give the interval after Q, in days (D) or hours (H), and the number of doses after X. Some entries hold several experiments; the results are listed from low to high. Where survival is the endpoint, the PubChem record calls one and a half times the control and up active, and a quarter to a half above the control has no call in these data; cut-offs in other NCI protocols can differ.

For the compound `Cc1cc(N(CCCl)CCCl)ccc1CN1CCCN(Cc2ccc(N(CCCl)CCCl)cc2C)C1c1ccccc1O`, the survivor count reads like this: (T/C endpoint: mean tumor weight, dose: 100.0 mg/kg/injection, schedule: Q01DX011 (ip), vehicle: saline with Tween-80, higher T/C = larger tumour) 4 of 8; (T/C endpoint: mean tumor weight, dose: 200.0 mg/kg/injection, schedule: Q01DX011 (ip), vehicle: saline with Tween-80, higher T/C = larger tumour) 4 of 8; (T/C endpoint: mean tumor weight, dose: 400.0 mg/kg/injection, schedule: Q01DX011 (ip), vehicle: saline with Tween-80, higher T/C = larger tumour) 1 of 8; (T/C endpoint: median survival time, dose: 100.0 mg/kg/injection, schedule: Q01DX011 (ip), vehicle: saline with Tween-80, higher T/C = longer survival) 4 of 8; (T/C endpoint: median survival time, dose: 200.0 mg/kg/injection, schedule: Q01DX011 (ip), vehicle: saline with Tween-80, higher T/C = longer survival) 4 of 8; (T/C endpoint: median survival time, dose: 400.0 mg/kg/injection, schedule: Q01DX011 (ip), vehicle: saline with Tween-80, higher T/C = longer survival) 1 of 8.

With `c1ccc(OCCC[P+](c2ccccc2)(c2ccccc2)c2ccccc2)cc1`, the survivor count (T/C endpoint: median survival time, dose: 5.0 mg/kg/injection, schedule: Q01DX011 (ip), vehicle: saline with Tween-80, higher T/C = longer survival) is recorded as 4 of 8; the survivor count (T/C endpoint: median survival time, dose: 10.0 mg/kg/injection, schedule: Q01DX011 (ip), vehicle: saline with Tween-80, higher T/C = longer survival) was 5 of 8; the survivor count (T/C endpoint: median survival time, dose: 20.0 mg/kg/injection, schedule: Q01DX011 (ip), vehicle: saline with Tween-80, higher T/C = longer survival) was 3 of 8; the survivor count (T/C endpoint: median survival time, dose: 40.0 mg/kg/injection, schedule: Q01DX011 (ip), vehicle: saline with Tween-80, higher T/C = longer survival) was 5 of 8.

On to `C[C@]12C=CC(=O)C=C1CC[C@@H]1[C@@H]2C(=O)C[C@@]2(C)[C@H]1CC[C@]2(O)C(=O)CO`, for which the survivor count was 5 of 8 (T/C endpoint: mean tumor weight, dose: 65.0 mg/kg/injection, schedule: Q01DX009 (ip), vehicle: water, higher T/C = larger tumour); 2 of 8 (T/C endpoint: mean tumor weight, dose: 108.0 mg/kg/injection, schedule: Q01DX009 (ip), vehicle: water, higher T/C = larger tumour); 1 of 8 (T/C endpoint: mean tumor weight, dose: 180.0 mg/kg/injection, schedule: Q01DX009 (ip), vehicle: water, higher T/C = larger tumour); 5 of 8 (T/C endpoint: median survival time, dose: 65.0 mg/kg/injection, schedule: Q01DX009 (ip), vehicle: water, higher T/C = longer survival); 4 of 10 and 8 of 10 (T/C endpoint: median survival time, dose: 100.0 mg/kg/injection, schedule: Q01DX011 (ip), vehicle: carboxymethylcellulose (CMC), higher T/C = longer survival); 2 of 8 (T/C endpoint: median survival time, dose: 108.0 mg/kg/injection, schedule: Q01DX009 (ip), vehicle: water, higher T/C = longer survival). The survivor count was 5 of 8 (T/C endpoint: median survival time, dose: 144.0 mg/kg/injection, schedule: Q01DX007 (sc), vehicle: saline, higher T/C = longer survival); 1 of 8 (T/C endpoint: median survival time, dose: 180.0 mg/kg/injection, schedule: Q01DX009 (ip), vehicle: water, higher T/C = longer survival); 7 of 10 and 9 of 10 (T/C endpoint: median survival time, dose: 200.0 mg/kg/injection, schedule: Q01DX011 (ip), vehicle: carboxymethylcellulose (CMC), higher T/C = longer survival); 6 of 8 (T/C endpoint: median survival time, dose: 200.0 mg/kg/injection, schedule: Q01DX011 (ip), vehicle: saline, higher T/C = longer survival); 4 of 8 (T/C endpoint: median survival time, dose: 200.0 mg/kg/injection, schedule: Q01DX011 (ip), vehicle: water, higher T/C = longer survival); 8 of 8 (T/C endpoint: median survival time, dose: 240.0 mg/kg/injection, schedule: Q01DX007 (sc), vehicle: saline, higher T/C = longer survival). Moreover, the survivor count (T/C endpoint: median survival time, dose: 400.0 mg/kg/injection, schedule: Q01DX011 (ip), vehicle: carboxymethylcellulose (CMC), higher T/C = longer survival) was 0 of 10 and 7 of 10.

Regarding `Nc1ncn(C2OC(CO)C(O)C2O)c(=O)n1` (configuration not stated), the survivor count is 2 of 8 (T/C endpoint: mean tumor weight, dose: 0.75 mg/kg/injection, schedule: Q01DX011 (ip), vehicle: saline, higher T/C = larger tumour); 6 of 8 (T/C endpoint: median survival time, dose: 0.19 mg/kg/injection, schedule: Q01DX011 (ip), vehicle: saline, higher T/C = longer survival); 2 of 8 (T/C endpoint: median survival time, dose: 0.75 mg/kg/injection, schedule: Q01DX011 (ip), vehicle: saline, higher T/C = longer survival); 0 of 8 (T/C endpoint: median survival time, dose: 1.5 mg/kg/injection, schedule: Q01DX011 (ip), vehicle: saline, higher T/C = longer survival); 0 of 8 (T/C endpoint: median survival time, dose: 3.0 mg/kg/injection, schedule: Q01DX011 (ip), vehicle: saline, higher T/C = longer survival); 7 of 10 and 10 of 10 (T/C endpoint: median survival time, dose: 3.2 mg/kg/injection, schedule: Q01DX011 (ip), vehicle: saline, higher T/C = longer survival). The survivor count (T/C endpoint: median survival time, dose: 6.0 mg/kg/injection, schedule: Q01DX011 (ip), vehicle: saline, higher T/C = longer survival) is 0 of 8. For the same compound, the T/C reads like this: (T/C endpoint: median survival time, dose: 0.8 mg/kg/injection, schedule: Q01DX011 (ip), vehicle: saline, higher T/C = longer survival) 131 % of control; (T/C endpoint: median survival time, dose: 1.6 mg/kg/injection, schedule: Q01DX011 (ip), vehicle: saline, higher T/C = longer survival) 131 and 142 % of control.
